Experimental data published in patent US9709886B2, “Sulfonic acid derivative compounds as photoacid generators in resist applications” (Heraeus Precious Metals North America Daychem LLC, priority 2015, dated 2017).

Assay: Photolysis of PAGs in acetonitrile, irradiation at 365 nm (photoreactivity)
Assay type: physicochemical
Details: photoreaction constant in acetonitrile (3×10^−5 M), NIT normalized to one
From the text: A photoresist composition typically comprises PAG, polymers, additives and solvents. The performance of a photoresist composition is mainly dependent on the properties of the PAG and polymer components. To formulate a high-performance photoresist composition, more photosensitive PAGs are typically selected. The photosensitivity of a PAG is typically directly related to the strength of the generated acid and the photoreactivity of the PAG. For a series of PAGs producing the same latent acid, their photosensitivity is related only to their photoreactivity. Thus evaluating the photosensitivity of a PAG can be achieved by studying its photoreactivity. The higher photoreactivity, the higher photosensitivity. The photoreactivity can be investigated by photolysis of a PAG in its dilute solution under low exposure intensity (to avoid side reactions which don't generate the desired acid). The change in the concentration of a PAG upon irradiation can be determined by measuring the absorbance of the PAG at the maximum absorption wavelength.
Photolysis of PAGs was carried out in acetonitrile in air at room temperature. The sodium salt of tetrabromophenol blue (TBPBNa), an acid indicator dye, which has a maximum absorption at 618 nm, was purchased from Aldrich (indicator grade) and used as received. Irradiation of the solution of the PAGs (3×10^−5 M) was performed using a Cole-Parmer UV 15 W bench lamp (EW-97605-50) at 365 nm. Light intensity was measured using an UV Power Puck II radiometer from EIT Inc. UV-Vis spectra were run on a Thermo Scientific Evolution 201 UV-visible spectrophotometer.
Photolysis of NIT, comparative compound A and B, T1, T2, T3, and T5 was examined in acetonitrile. […] The absorption band at 362 nm (λmax) gradually decreases upon irradiation, indicating the progress of photoreaction with the increase of exposure dose of energy. Assuming the photoreaction is first-order, a plot of the natural log of changes in absorbance with exposure dose of energy gives the photoreaction constant of T3 (i.e., the slope of the linear trendline) (FIG. 2). The photoreaction constants of other compounds were similarly determined under the same irradiation condition. Comparing the constants of A, B, T1, T2, T3, and T5 with that of NIT normalized to one gives the relative photoreactivity (Table 9). […] The formation of acid upon irradiation was confirmed by observing the spectral changes of the acid indicator, TBPBNa at 618 nm.

| SMILES | Relative Photoreactivity at 365 nm |
| --- | --- |
| CCCCCCC#Cc1ccc2c3c(cccc13)C(=O)N(OS(=O)(=O)C(F)(F)F)C2=O [Compound T2] | 8.6 |
| CCCCC#Cc1ccc2c3c(cccc13)C(=O)N(OS(=O)(=O)C(F)(F)F)C2=O [B, reference compound] | 8.0 |
| O=C1c2cccc3cccc(c23)C(=O)N1OS(=O)(=O)C(F)(F)F [NIT, N-Hydroxynaphthalimide triflate, reference compound] | 1.0 |
| CCCCC#Cc1ccc2c3c(cccc13)C(=O)N(OS(=O)(=O)C(F)(F)C(F)(F)C(F)(F)C(F)(F)F)C2=O [Compound T1] | 9.3 |
| CCCCCCC#Cc1ccc2c3c(cccc13)C(=O)N(OS(=O)(=O)C(F)(F)C(F)(F)C(F)(F)C(F)(F)F)C2=O [Compound T3] | 9.6 |
| CCCC(=O)OCC#Cc1ccc2c3c(cccc13)C(=O)N(OS(=O)(=O)C(F)(F)F)C2=O [Compound T5] | 4.0 |
| O=C1c2cccc3c(C#Cc4ccccc4)ccc(c23)C(=O)N1OS(=O)(=O)C(F)(F)F [A, reference compound] | 2.5 |
